This note sets out measurements from publication PMC13275894.

Protein sequences, listed by entry. Tags and fused reporters are not part of them. Residues count along the entry.
UniProt Q13772: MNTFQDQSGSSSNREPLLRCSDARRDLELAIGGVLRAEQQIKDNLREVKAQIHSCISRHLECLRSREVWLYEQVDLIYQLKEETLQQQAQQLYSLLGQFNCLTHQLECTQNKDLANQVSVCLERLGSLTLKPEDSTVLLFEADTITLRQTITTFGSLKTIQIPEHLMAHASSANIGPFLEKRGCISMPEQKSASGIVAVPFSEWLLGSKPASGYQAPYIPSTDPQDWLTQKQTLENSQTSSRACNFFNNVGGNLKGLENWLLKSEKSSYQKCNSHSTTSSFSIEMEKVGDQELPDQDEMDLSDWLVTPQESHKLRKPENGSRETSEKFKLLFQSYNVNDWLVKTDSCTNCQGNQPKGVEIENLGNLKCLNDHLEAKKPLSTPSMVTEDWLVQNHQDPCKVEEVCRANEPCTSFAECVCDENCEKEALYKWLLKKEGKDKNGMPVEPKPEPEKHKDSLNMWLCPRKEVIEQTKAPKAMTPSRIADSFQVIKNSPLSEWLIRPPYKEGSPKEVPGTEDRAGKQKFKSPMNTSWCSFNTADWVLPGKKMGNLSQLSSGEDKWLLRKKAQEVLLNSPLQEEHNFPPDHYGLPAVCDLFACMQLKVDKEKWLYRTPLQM
UniProt Q86VP1: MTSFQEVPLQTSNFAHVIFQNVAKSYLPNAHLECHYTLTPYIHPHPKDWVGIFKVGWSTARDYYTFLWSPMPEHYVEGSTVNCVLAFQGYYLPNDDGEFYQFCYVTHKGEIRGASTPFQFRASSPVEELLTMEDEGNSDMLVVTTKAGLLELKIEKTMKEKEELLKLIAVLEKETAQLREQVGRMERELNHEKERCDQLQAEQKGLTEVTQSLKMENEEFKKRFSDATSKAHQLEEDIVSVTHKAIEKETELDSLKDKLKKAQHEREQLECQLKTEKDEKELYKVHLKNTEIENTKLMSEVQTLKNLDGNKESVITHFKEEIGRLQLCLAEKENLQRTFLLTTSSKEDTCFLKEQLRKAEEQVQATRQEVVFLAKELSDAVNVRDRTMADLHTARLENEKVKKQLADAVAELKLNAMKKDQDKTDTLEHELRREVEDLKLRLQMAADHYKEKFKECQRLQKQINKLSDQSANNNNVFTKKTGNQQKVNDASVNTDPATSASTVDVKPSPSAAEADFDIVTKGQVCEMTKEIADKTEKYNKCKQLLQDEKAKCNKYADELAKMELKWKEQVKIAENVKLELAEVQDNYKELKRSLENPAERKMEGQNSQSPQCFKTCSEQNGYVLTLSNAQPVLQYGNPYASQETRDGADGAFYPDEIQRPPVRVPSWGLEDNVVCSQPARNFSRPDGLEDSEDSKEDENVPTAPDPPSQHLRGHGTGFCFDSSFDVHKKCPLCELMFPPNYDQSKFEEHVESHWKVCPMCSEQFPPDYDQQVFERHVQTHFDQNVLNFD
UniProt P19652, residues 19-201: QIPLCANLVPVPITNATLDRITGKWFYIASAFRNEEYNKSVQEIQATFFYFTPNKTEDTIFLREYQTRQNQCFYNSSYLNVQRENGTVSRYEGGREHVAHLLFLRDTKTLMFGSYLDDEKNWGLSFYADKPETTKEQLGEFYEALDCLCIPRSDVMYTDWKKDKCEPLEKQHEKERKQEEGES

Results are given in words; binding and its absence hold for the method and conditions named. In cells and extracts the contact can be indirect. Some entries that bind do so weakly or less than the wild type.

In assay [1] the target is Myc-NCOA4 (UniProt Q13772). Kind of assay: co-IP; HEK293T co-transfected with Flag-ORM2 and Myc-NCOA4; 8 uM FINO2 or vehicle for 3 h; co-IP with Myc beads; Flag-ORM2 analysed.
For another assay, the target named is Flag-TAX1BP1 (UniProt Q86VP1). The assay is described as follows: co-IP; HEK293T co-transfected with Flag-TAX1BP1 and HA-ORM2; 8 uM FINO2 or vehicle for 3 h; co-IP with Flag beads; HA-ORM2 measured.
In assay [2] the target is Myc-NCOA4 (UniProt Q13772). Kind of assay: co-IP; HEK293T co-transfected with Flag-TAX1BP1, Myc-NCOA4 and increasing amounts of HA-ORM2 plasmid; 8 uM FINO2 plus 10 uM chloroquine or DMSO; co-IP with Myc beads; IB with Flag, HA, Myc and GAPDH antibodies.

Consider “Flag-ORM2 (Orosomucoid 2) (from UniProt P19652 19-201)”, for which the binding result with Myc-NCOA4 [1] was “binds”.

Turning to “HA-ORM2 (Orosomucoid 2) (from UniProt P19652 19-201)”, the binding result in the assay with Flag-TAX1BP1 is on record as “no binding”; in the assay with Myc-NCOA4 [2], “binds”.
